Measured values reported in patent US20240207458A1 (H. LEE MOFFITT CANCER CENTER AND RESEARCH INSTITUTE, INC., priority 2021, published 2024).

Experiment: general procedure: Fmoc solid-phase peptide synthesis; HCTU/DIPEA
Conditions: late stage modification step, one disulfide bridge, sequence written open

First: La-DOTA-Ahx-TATE
Second: 139La-DOTA-D-Phe-D-Ala-TATE
The “final HPLC purity” value of the first is lower: 95.6% for the first, 100% for the second.

Going from La-DOTA-D-Glu-D-Glu-TATE to 139La-DOTA-D-Phe-D-Leu-TATE, the “final HPLC purity” value rises from 97.0% to 99.2%.

First: La-DOTA-D-Lys-D-Lys-TATE
Second: La-DOTA-D-Lys-D-Glu-TATE
The “final HPLC purity” value of the first is lower: 95.2% for the first, 98.4% for the second.

Same assay, conditions: whole synthesis, one disulfide bridge, sequence written open

Going from DOTA-di-D-Lys-TATE to DOTA-di-D-Glu-TATE, the “final HPLC purity” value falls from 98% to 97%.

First: DOTA-Ahx-TATE
Second: DOTA-D-Phe-D-Ala-TATE
The “final HPLC purity” value of the first is lower: 96% for the first, 99.8% for the second.

First: DOTA-D-Phe-D-Leu-TATE
Second: DOTA-D-Lys-D-Glu-TATE
The “final HPLC purity” value of the first is higher: 100% for the first, 97% for the second.
